These are yes or no findings as the source states them, for the method shown. Binding seen in cells or lysates may run through a third protein. Tags and fused reporters may be left off the sequences shown.
Biological target: T1, FBXO24-HA (FBXO24 with a C-terminal HA epitope tag, from Fbxo24-HA-tagged transgenic mice) (mouse) (UniProt Q9D417)
T1 sequence: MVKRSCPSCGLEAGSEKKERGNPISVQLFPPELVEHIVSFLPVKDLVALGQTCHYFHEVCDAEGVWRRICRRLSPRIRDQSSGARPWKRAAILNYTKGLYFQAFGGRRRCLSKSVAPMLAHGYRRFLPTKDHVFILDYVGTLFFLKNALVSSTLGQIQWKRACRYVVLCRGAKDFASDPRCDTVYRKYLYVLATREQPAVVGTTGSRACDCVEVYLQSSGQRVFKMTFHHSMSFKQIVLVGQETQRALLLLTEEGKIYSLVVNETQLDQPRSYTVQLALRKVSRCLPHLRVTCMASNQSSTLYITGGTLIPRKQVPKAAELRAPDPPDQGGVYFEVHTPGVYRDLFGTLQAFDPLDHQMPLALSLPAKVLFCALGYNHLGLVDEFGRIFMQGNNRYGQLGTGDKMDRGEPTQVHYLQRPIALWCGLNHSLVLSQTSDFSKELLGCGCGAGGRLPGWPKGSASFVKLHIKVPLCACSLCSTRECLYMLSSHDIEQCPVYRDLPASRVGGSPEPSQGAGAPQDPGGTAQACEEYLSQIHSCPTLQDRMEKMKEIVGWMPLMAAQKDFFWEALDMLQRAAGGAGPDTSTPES
Test: co-IP; testis lysate of Fbxo24-HA-tagged mice in IP buffer, anti-HA nanobody agarose beads, 4°C overnight, western blot; wild-type testis as negative control

Question: For “histone H2B (mouse (endogenous in testis))”, which binding is on record?
Answer: no binding
